Source: patent US3985621A, “Stopping agents for enzyme reactions of dehydrogenase systems” (priority 1974, dated 1976)
For at least one compound, name, drawing or mass did not settle the structure.

Key:
[1] = tested on: GPT; test: Inhibitory action of CAPS buffer solution on dehydrogenase reaction, serum GPT diagnostic kit; type: biochemical, human
From the text: For measuring serum GOT or GPT activity, the reaction can be carried out through addition of malic dehydrogenase to the reaction medium in case of GOT and LDH in case of GPT, together with the enzyme substrates such as α-ketoglutaric acid and L-aspartic acid for the former enzyme or α-ketoglutaric acid and L-alanine for the latter, and a reduced form of NAD (hereinafter referred to as NADH) in either case. Oxaloacetic acid derived from aspartic acid with GOT (in case of GPT, pyruvic acid derived from alanine, the GPT case being hereinafter referred to in the parenthesis) is converted to malic acid (lacetic acid) with malic dehydrogenase (lactic dehydrogenase) and NADH concurrently with oxidation of NADH to NAD, which results in decrease of absorbance at 340nm arising from NADH. An amount of the oxaloacetic acid (pyruvic acid) produced by GOT (GPT) is stoichiometrically equal to that of the NADH to be oxidized and a GOT (GPT) activity can be, therefore, determined from an oxidized amount of NADH which is obtained from an absorbance decrease at 340nm.
(§1) Four enzymes which are widely employed for examination in clinical diagnosis among various serum enzymes, were tested on the inhibitory actions by CAPS buffer solution. Some of our experiments are summarized in the Table 1 wherein changes in absorbance at 340nm during the whole process of the reaction are automatically recorded and expressed in terms of inhibition degree by adding serum to a reaction mixture for proceeding the reaction and then adding thereto CAPS buffer solution with varied concentrations, pH values and amounts added.
(§2) 1) Diagnostic kits available from Calbiochem U.S.A., used for measuring
(§3) GOT, GPT and CPK and diagnostic kits available from Boeringer-Manheim,
(§4) West Germany, used for measuring ALD, standard human serum
(§5) (Caltrol-Abnormal) available from Calbiochem used for serum.
(§6) 2) Volume ratio of the added buffer solution to the enzyme reaction
(§7) added per volume of the reaction mixture.
(§8) 3) Concentration and pH of the added buffer solution.
(§9) 4) C represents 100 % complete inhibition and figure (%) represents

[2] = tested on: ALD; test: Inhibitory action of CAPS buffer solution on dehydrogenase reaction, serum ALD diagnostic kit; type: biochemical, human
From the text: In measuring ALD activity, one can carry out by adding to a reaction medium fructose-1,6-diphosphate which is a substrate, togethe with triose phosphate isomerase (hereinafter referred to as TMI) and glycerol-1-phosphate dehydrogenase (hereinafter referred to as GDH). In this system, the products by ALD are converted to dioxyacetone phosphoric acid, which is then converted to glycerol-1-phosphate by the action of GDH and NADH. NADH is simultaneously oxidized to NAD. Hydrolysis of 1 mole of fructose-1,6-diphosphate with ALD results in oxidation of 2 moles of NADH.
as §1, §2, §3, §4, §5, §6, §7, §8, §9

O=S(=O)(O)CCCNC1CCCCC1 [CAPS buffer soln., cyclohexylaminopropanesulfonic acid]
Inhibition degree, serum enzyme GPT ([1]; 1/2 Vol. added, 0.5 M, pH 12.0): C (C represents 100 % complete inhibition)
Inhibition degree, serum enzyme GPT ([1]; 1/2 Vol. added, 0.5 M, pH 12.5): C (C represents 100 % complete inhibition)
Inhibition degree, serum enzyme GPT ([1]; 1/2 Vol. added, 1 M, pH 11.0): C (C represents 100 % complete inhibition)
Inhibition degree, serum enzyme GPT ([1]; 1/2 Vol. added, 1 M, pH 11.5): C (C represents 100 % complete inhibition)
Inhibition degree, serum enzyme GPT ([1]; 1/2 Vol. added, 2 M, pH 10.5): C (C represents 100 % complete inhibition)
Inhibition degree, serum enzyme GPT ([1]; 1/2 Vol. added, 2 M, pH 11.0): C (C represents 100 % complete inhibition)
Inhibition degree, serum enzyme GPT ([1]; 1 Vol. added, 0.5 M, pH 11.0): C (C represents 100 % complete inhibition)
Inhibition degree, serum enzyme GPT ([1]; 1 Vol. added, 0.5 M, pH 11.5): C (C represents 100 % complete inhibition)
Inhibition degree, serum enzyme GPT ([1]; 1 Vol. added, 1 M, pH 10.5): C (C represents 100 % complete inhibition)
Inhibition degree, serum enzyme GPT ([1]; 1 Vol. added, 1 M, pH 11.0): C (C represents 100 % complete inhibition)
Inhibition degree, serum enzyme GPT ([1]; 1 Vol. added, 2 M, pH 10.5): C (C represents 100 % complete inhibition)
Inhibition degree, serum enzyme GPT ([1]; 2 Vol. added, 0.1 M, pH 11.0): 70%
Inhibition degree, serum enzyme GPT ([1]; 2 Vol. added, 0.1 M, pH 11.5): C (C represents 100 % complete inhibition)
Inhibition degree, serum enzyme GPT ([1]; 2 Vol. added, 0.125 M, pH 11.5): C (C represents 100 % complete inhibition)
Inhibition degree, serum enzyme GPT ([1]; 2 Vol. added, 0.5 M, pH 10.5): C (C represents 100 % complete inhibition)
Inhibition degree, serum enzyme GPT ([1]; 2 Vol. added, 0.5 M, pH 11.0): C (C represents 100 % complete inhibition)
Inhibition degree, serum enzyme GPT ([1]; 4 Vol. added, 0.1 M, pH 11.5): C (C represents 100 % complete inhibition)
Inhibition degree, serum enzyme GPT ([1]; 4 Vol. added, 0.125 M, pH 11.0): C (C represents 100 % complete inhibition)
Inhibition degree, serum enzyme ALD ([2]; 1/2 Vol. added, 0.5 M, pH 12.0): C (C represents 100 % complete inhibition)
Inhibition degree, serum enzyme ALD ([2]; 1/2 Vol. added, 0.5 M, pH 12.5): C (C represents 100 % complete inhibition)
Inhibition degree, serum enzyme ALD ([2]; 1/2 Vol. added, 1 M, pH 11.0): C (C represents 100 % complete inhibition)
Inhibition degree, serum enzyme ALD ([2]; 1/2 Vol. added, 1 M, pH 11.5): C (C represents 100 % complete inhibition)
Inhibition degree, serum enzyme ALD ([2]; 1/2 Vol. added, 2 M, pH 10.5): C (C represents 100 % complete inhibition)
Inhibition degree, serum enzyme ALD ([2]; 1/2 Vol. added, 2 M, pH 11.0): C (C represents 100 % complete inhibition)
Inhibition degree, serum enzyme ALD ([2]; 1 Vol. added, 0.5 M, pH 11.0): C (C represents 100 % complete inhibition)
Inhibition degree, serum enzyme ALD ([2]; 1 Vol. added, 0.5 M, pH 11.5): C (C represents 100 % complete inhibition)
Inhibition degree, serum enzyme ALD ([2]; 1 Vol. added, 1 M, pH 10.5): C (C represents 100 % complete inhibition)
Inhibition degree, serum enzyme ALD ([2]; 1 Vol. added, 1 M, pH 11.0): C (C represents 100 % complete inhibition)
Inhibition degree, serum enzyme ALD ([2]; 1 Vol. added, 2 M, pH 10.5): C (C represents 100 % complete inhibition)
Inhibition degree, serum enzyme ALD ([2]; 2 Vol. added, 0.1 M, pH 11.0): 95%
Inhibition degree, serum enzyme ALD ([2]; 2 Vol. added, 0.1 M, pH 11.5): C (C represents 100 % complete inhibition)
Inhibition degree, serum enzyme ALD ([2]; 2 Vol. added, 0.125 M, pH 11.5): C (C represents 100 % complete inhibition)
Inhibition degree, serum enzyme ALD ([2]; 2 Vol. added, 0.5 M, pH 10.5): C (C represents 100 % complete inhibition)
Inhibition degree, serum enzyme ALD ([2]; 2 Vol. added, 0.5 M, pH 11.0): C (C represents 100 % complete inhibition)
Inhibition degree, serum enzyme ALD ([2]; 4 Vol. added, 0.1 M, pH 11.5): C (C represents 100 % complete inhibition)
Inhibition degree, serum enzyme ALD ([2]; 4 Vol. added, 0.125 M, pH 11.0): C (C represents 100 % complete inhibition)
